# Measured values taken from PubChem BioAssay AID590 (National Center for Advancing Translational Sciences (NCATS), 2007).
# Screen size: about 59,000 compounds; about 6,500 (11%) were called active. Inconclusive means that the source gave no clear call. Such entries were picked first, then a sample of the others. No stated cut-off is given here; in the data, active means max dye-equivalent concentration above about 10 nM; inconclusive means mostly about 1.1 nM to 9.6 nM; inactive means weaker than that.
# Assay: qHTS Assay for Spectroscopic Profiling in A350 Spectral Region
# Settings: Compound autofluorescence, 340/450 nm, Alexa 350 dye-equivalents; stronger effect = higher value
row,SMILES,max dye-equivalent concentration
1,CCOCC(=O)NCc1ccc2c(c1)OCO2,inconclusive: 6 nM
2,O=C(Cn1nnc(-c2ccc3c(c2)OCO3)n1)N1CCOCC1,inactive
3,CCOc1ccccc1C(=O)Nc1ccc(-c2nnc(-c3ccc(C)cc3)o2)cc1,active: 31 nM
4,CCCCCCn1c(NCC)nc2c1c(=O)n(C)c(=O)n2C,inactive
5,CCOC(=O)c1c(C)[nH]c(C)c1-c1ccccc1OC,inconclusive: 3.4 nM
6,O=C(CN1CCC2(CC1)OCCO2)c1ccc2cc[nH]c2c1,active: 67 nM
7,N#Cc1cc2ccccc2nc1SCc1ccccn1,inconclusive: 9.4 nM
8,COC(=O)c1sc2nc(CN3CCOCC3)nc(N3CCOCC3)c2c1C,inconclusive: 8.6 nM
9,CCN1CCN(CC(=O)Nc2c(C(=O)OC)[nH]c3cccc(Cl)c23)CC1,inactive
10,O=C1c2ccccc2NC(c2cnc3ccccc3n2)N1O (configuration not stated),inconclusive: 7.6 nM
11,CN(C)C(=O)c1ccc(-c2cc(N(C)Cc3ccco3)ncn2)cc1,inconclusive: 1.4 nM
12,C=CCNc1ncnc2ccccc12,inconclusive: 2.7 nM
13,O=C(NCc1ccccc1)N1CCC(n2cnc3cc(F)ccc32)CC1,inconclusive: 1.2 nM
14,Cn1c(=O)[nH]c(=O)c2c1nc(Br)n2Cc1ccccc1F,inconclusive: 1.1 nM
15,CN(C)C(=O)c1ccc(COc2ccccc2Br)o1,inconclusive: 2.3 nM
16,CCn1c(SCC(=O)c2ccc3c(c2)OCCO3)nnc1C(C)C,active: 10 nM
17,Cc1cc(C)c(C)c(OCC(=O)NCC2CCCO2)c1 (configuration not stated),inconclusive: 2.9 nM
18,CCN=c1scc(C)n1/N=C/c1ccsc1,inconclusive: 6.4 nM
19,CCOC(=O)N1CCC(NC(=O)C2CCN(c3nc(-c4ccc(OC)cc4)no3)CC2)CC1,inactive
20,O=C1CSC(c2cccnc2)N1C1CCCCC1 (configuration not stated),inconclusive: 1.5 nM
21,CCN(CC)CCNS(=O)(=O)c1ccc(Cl)cc1,inconclusive: 1.3 nM
22,CN(C)/C=C1\C=C(c2ccccc2)OC1=O,inconclusive: 6.8 nM
23,O=C(CCN1C(=O)COc2ccccc21)NCc1cccnc1,inconclusive: 5.5 nM
24,COc1ccc(-n2ncc3c(N4CCC(C(N)=O)CC4)ncnc32)cc1,inconclusive: 4.8 nM

row,SMILES,max dye-equivalent concentration
1,Cn1c(Nn2cnnc2)nc2ccccc21,active: 35 nM
2,COc1ccc2cc(C(c3nnnn3C(C)(C)C)N3CCc4ccccc4C3)c(=O)[nH]c2c1 (configuration not stated),active: 25 nM
3,Cc1ccc(NC(=O)CSCC(N)=O)cc1C,active: 520 nM
4,Cc1nnc2sc(-c3cc4ccccc4o3)nn12,inconclusive: 5.1 nM
5,Cc1ccc2cc(C#N)c(N3CCCN(S(=O)(=O)c4ccccc4)CC3)nc2c1,active: 39 nM
6,COc1ccc(Cl)cc1NC(=O)N(C)Cc1c(C)nn(C)c1C,inconclusive: 1.7 nM
7,Cc1cc(C)n2cc(CSc3nnc(-c4ccccc4)o3)nc2n1,inconclusive: 1.8 nM
8,OCCNc1ncnc2ccc(Br)cc12,inconclusive: 1.6 nM
9,Cn1c(NCc2ccccc2)nc2c1c(=O)n(Cc1ccc(Br)cc1)c(=O)n2C,inactive
10,CC(=O)C1=C(O)C(=O)N(CCc2c[nH]c3ccccc23)C1c1ccco1 (configuration not stated),inconclusive: 6.7 nM
11,CCOC(=O)c1c(-c2cccs2)csc1NC(=O)CCCC(=O)O,inactive
12,COc1ccccc1-c1cc(C(=O)N2CCN(c3ccccc3OC)CC2)no1,inconclusive: 9.6 nM
13,CCOc1nnnc2c1sc1nc(N3CCOCC3)c3c(c12)CC(C)(C)OC3,inactive
14,CCn1c(COc2ccc3c(c2)OCO3)nnc1SCC(=O)c1ccccc1,inconclusive: 1.1 nM
15,COc1cccc(Cn2c(=O)cnc3cnc(N(C)C)nc32)c1,inconclusive: 7.7 nM
16,CCSc1nc(N2CCOCC2)c2ccccc2n1,inconclusive: 8.3 nM
17,CCCCC(CC)C(=O)Nc1ccccc1C(=O)NC(C)C (configuration not stated),inactive
18,COc1ccc2cc(C(=O)OC(C)C)sc(=O)c2c1OC,active: 18 nM
19,CCOC(=O)Cc1nnc2c(Nc3ccc(Cl)cc3)nc3nonc3n12,inconclusive: 5.8 nM
20,CN(C)CCCN1c2ccccc2CCc2ccccc21,inconclusive: 1.8 nM
21,O=C(Nc1cccnc1)c1cccc(S(=O)(=O)N2CCOCC2)c1,inactive
22,Cc1ccc2nc(-c3cccc(-c4nc5ccc(C)cc5o4)n3)oc2c1,inconclusive: 1.3 nM
23,CCN(Cc1cc2cccc(C)c2[nH]c1=O)C(=O)c1ccccc1OC,active: 14 nM

# By substructure, those above with an NH in an aromatic ring (seven)
row,SMILES,max dye-equivalent concentration
5,CCOC(=O)c1c(C)[nH]c(C)c1-c1ccccc1OC,inconclusive: 3.4 nM
6,O=C(CN1CCC2(CC1)OCCO2)c1ccc2cc[nH]c2c1,active: 67 nM
9,CCN1CCN(CC(=O)Nc2c(C(=O)OC)[nH]c3cccc(Cl)c23)CC1,inactive
14,Cn1c(=O)[nH]c(=O)c2c1nc(Br)n2Cc1ccccc1F,inconclusive: 1.1 nM
2,COc1ccc2cc(C(c3nnnn3C(C)(C)C)N3CCc4ccccc4C3)c(=O)[nH]c2c1 (configuration not stated),active: 25 nM
10,CC(=O)C1=C(O)C(=O)N(CCc2c[nH]c3ccccc23)C1c1ccco1 (configuration not stated),inconclusive: 6.7 nM
23,CCN(Cc1cc2cccc(C)c2[nH]c1=O)C(=O)c1ccccc1OC,active: 14 nM
